Data taken from PubChem BioAssay AID1347075 (National Center for Advancing Translational Sciences (NCATS), 2019).
Screen size: about 400,000 compounds; about 5,500 (1.4%) were called active. This list was built around the results that the source calls inconclusive (neither active nor inactive); the mix of calls is not that of the screen. Calls follow the shape of the dose curve; as a rule, active = well fitted cell-killing curve with a large enough effect; inconclusive = small, poorly fitted or top-dose-only effect, or effect the other way; inactive = flat fitted curve, though single readings scatter. Where the call is inconclusive, the potency comes from a doubtful curve fit.

Test: qHTS assay for MDR1-selective chemotherapeutics: Primary screen using the parental adenocarcinoma cell KB-3-1; also: nearly all actives have a fitted effect of over 60% in size
Settings: KB-3-1 viability, CellTiter-Glo ATP luminescence, 72 h; activity change, negative = cytotoxic: at 46.1 µM (top of the series)
Outline: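 Multi-concentration cytotoxicity screen in KB-3-1 cells grown in DMEM lacking phenol red with 10% FBS. After 72 h at 37 °C with compound, ATP-dependent luminescence was recorded.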
% is scaled to controls: 0 for no effect and ±100 for the full control effect; potency is read from the fitted curve at half-maximal effect.

SMILES	Potency	activity change, negative = cytotoxic
CCOC(=O)c1c(C)[nH]c2cc(Br)c(O)cc12	inactive	–
Cc1ccc(N2C(=O)CSC23C(=O)N(CC(=O)NC2CCCCC2)c2ccccc23)cc1 (stereo not drawn)	inactive	–
COc1ccc(-c2oc3ncnc(NCCCN(C)C)c3c2-c2ccc(OC)cc2)cc1	inconclusive: 29.1 µM [cytotoxic, single point]	–
O=C(c1ccco1)N1CCN(C(=O)c2cc3sccc3n2Cc2ccccc2)CC1	inconclusive: 20.6 µM [cytotoxic, single point]	–
CC(C)c1ccc(NC(=O)c2csnn2)cc1	inconclusive: 16.4 µM [rising, partial curve, poor fit]	–
CCOc1ccc(OCC)c(NC(=O)C2CCN(S(=O)(=O)c3ccc(Br)s3)CC2)c1	inactive	–
CCCCC(=O)Nc1ccc(C(=O)c2ccccc2)cc1	inactive	–
CCC(=O)NC(=S)Nc1ccccc1C(=O)NC1CCCCC1	inconclusive: 23.1 µM [rising, single point]	–
CCOc1ccc(N2C(=O)C3=C(C(c4ccc(Cl)cc4)=NCCN3)C2c2cccnc2)cc1 (stereo not drawn)	inconclusive: 16.4 µM [cytotoxic, partial curve, poor fit]	–
CN(c1ccccc1)S(=O)(=O)c1ccc(Cl)c(C(=O)NCc2ccccc2CN2CCCC2)c1	inactive	–
c1ccc(OC2CCCCC2N2CCOCC2)cc1 (stereo not drawn)	inactive	–
O=C(Nc1ccc(F)cc1)[C@H](CSCc1ccccc1)N1Cc2ccccc2C1=O	inactive	–
Cc1ccc(S(=O)(=O)Nc2cc(C(=O)NCCN3CCCC3)ccc2N2CCCCC2)cc1	inconclusive: 29.1 µM [cytotoxic, single point]	–
C[C@@H]1CN([C@H](C)CO)C(=O)c2c(c3ccccc3n2C)-c2ccccc2CO[C@H]1CN(C)Cc1ccc(-c2ccccc2)cc1	inconclusive: 29.1 µM [cytotoxic, single point]	–
COc1cnc(-c2ccccn2)nc1Oc1ccc(C(C)(C)C)cc1	inconclusive: 29.1 µM [cytotoxic, single point]	–
CC1CCCN(Cc2c(O)ccc3c(=O)c(-c4nc5ccccc5s4)c(N)oc23)C1 (stereo not drawn)	inconclusive: 29.1 µM [cytotoxic, single point]	–
Cc1ccc(S(=O)(=O)N2CCOCC2)cc1NC(=O)COC(=O)c1cc[n+]([O-])cc1	inconclusive: 20.6 µM [rising, single point]	–
CC1Oc2ccccc2N(CC(=O)N2CCCCC2)C1=O (stereo not drawn)	inactive	–
COC(CNC(=O)c1ccc(N2CCc3ccccc32)c([N+](=O)[O-])c1)OC	inconclusive: 23.1 µM [cytotoxic, single point]	–
COc1cccc(C(=O)Nc2ccccc2OCc2cc(=O)n3cc(C)ccc3n2)c1	inactive	–
CC(=O)n1c(-c2ccccc2)c(CO)c2ccccc21	inactive	–
Cn1c(=O)c2c(SCC(=O)NCc3ccco3)nc(CC(C)(C)C)nc2n(C)c1=O	inconclusive: 29.1 µM [cytotoxic, single point]	–
CCCN1C=CC(=C2C(=O)c3ccccc3C2=O)C=C1	inconclusive: 10.3 µM [cytotoxic, partial curve, poor fit]	–

SMILES	Potency	activity change, negative = cytotoxic
CCOC(=O)C1=C(CS(=O)(=O)c2c(C)cc(C)cc2C)NC(=O)NC1c1cccc(OC)c1 (stereo not drawn)	inactive	–
Cc1nc(C)c(C(=O)N/N=C/c2c[nH]c3ccccc23)s1	inconclusive: 29.1 µM [cytotoxic, single point]	–
COc1ccc(/C=N/NC(=O)c2cc(C(C)(C)C)[nH]n2)cc1COc1ccc(F)cc1F	inconclusive: 23.1 µM [cytotoxic, partial curve, poor fit]	–
O=C(c1ccc(F)cc1)C1CCN(C(=O)Nc2ccc(F)cc2F)CC1	inconclusive: 23.1 µM [cytotoxic, single point]	–
CC1CCc2cc(F)ccc2N1S(=O)(=O)c1ccc(Cl)nc1 (stereo not drawn)	inconclusive: 29.1 µM [cytotoxic, partial curve, poor fit]	–
COc1ccc(C)cc1NC(=O)CSc1nc2ccccc2nc1N1CCCCC1	inconclusive: 23.1 µM [cytotoxic, single point]	–
Cc1cccc(NC(=O)CCNS(=O)(=O)c2ccc(Cl)cc2)c1	inconclusive: 18.4 µM [cytotoxic, partial curve, poor fit]	–
COc1nc(N(C)S(=O)(=O)c2ccc(C)cc2)nc(C)c1Br	inconclusive: 29.1 µM [cytotoxic, single point]	–
Cc1ccccc1-n1ncc2c1CC(C)(C)CC2NC(=O)c1cn[nH]c1C (stereo not drawn)	inconclusive: 23.1 µM [rising, single point]	–
CCCCCCSc1cc(-c2nc3cc(C)ccn3c2NC2CCCCC2)ccc1OC	inconclusive: 18.4 µM [cytotoxic, single point]	–
CC(=O)c1cccc(-c2ccnc3c2CC(C(=O)NCCC(F)(F)F)O3)c1 (stereo not drawn)	active: 7.31 µM	–
O=C(NNc1cc(N2CCOCC2)nc(N2CCOCC2)n1)c1ccc(Cl)cc1Cl	inconclusive: 3.26 µM [rising, single point]	–
COC(=O)c1cccc(Nc2c(-c3ccc(O)c(OC)c3)nc3nc[nH]n23)c1	inactive	–
CN(C)CCCN(C(=O)CCS(=O)(=O)c1ccccc1)c1nc2cc3c(cc2s1)OCO3	inconclusive: 29.1 µM [cytotoxic, single point]	–
CCOC(=O)c1c(NC(=O)c2cc(-c3ccc(Cl)s3)nc3ccccc23)sc(C(N)=O)c1C	inconclusive: 4.11 µM [cytotoxic, full curve]	–
O=C(NC1=NCCS1)c1sc2cc(Cl)cc(Cl)c2c1Cl	inconclusive: 7.31 µM [rising, partial curve]	–
CCOC(=O)c1c(NC(=O)C2=C(C)NC(=S)NC2c2ccc(F)cc2F)sc(C)c1C (stereo not drawn)	inconclusive: 20.6 µM [cytotoxic, single point]	–
CN1CCN(C(=O)C2CCN(c3ncnc4c3nc3n4CCCCC3)CC2)CC1	inconclusive: 23.1 µM [cytotoxic, single point]	–
N#Cc1nc(N2CCCC2)nc(N2CCCC2)n1	inconclusive: 11.6 µM [cytotoxic, partial curve, poor fit]	–
C[C@H](O)[C@@H]1CN2CCc3c([nH]c4ccccc34)[C@@H]2C[C@@H]1N(C)Cc1cc(Cl)cc(Cl)c1	inactive	–
COC(C/C=C\[C@H](O)[C@H](C)OCc1ccccc1)OC	inactive	–
Cn1c(-c2ccc3ccccc3n2)[n+](C)c2ccccc21	active: 9.2 µM	–
CCOC(=O)CSC1=C(C#N)C(c2ccccc2OC)CC(=O)N1 (stereo not drawn)	inconclusive: 20.6 µM [cytotoxic, partial curve, poor fit]	–

Part of the list above, field by field.
CN(c1ccccc1)S(=O)(=O)c1ccc(Cl)c(C(=O)NCc2ccccc2CN2CCCC2)c1
  Potency: inactive
Cn1c(=O)c2c(SCC(=O)NCc3ccco3)nc(CC(C)(C)C)nc2n(C)c1=O
  Potency: inconclusive: 29.1 µM [cytotoxic, single point]

Next results:

SMILES	Potency	activity change, negative = cytotoxic
CC(C)N1CCc2c(sc(NC(=O)c3cc(-c4cccs4)nc4ccccc34)c2C(N)=O)C1	inconclusive: 23.1 µM [cytotoxic, single point]	–
COc1ccc(NC(=O)C(=O)NCC(=O)Nc2cc(OC)ccc2OC)cc1	inconclusive: 6.51 µM [rising, partial curve]	–
CC(C)c1ccc(C2N=C(N)Nc3nc4ccccc4n32)cc1 (stereo not drawn)	inconclusive: 29.1 µM [cytotoxic, single point]	–
CC(C)(C)c1ccc(/C=N/N2C(=O)CSC2=S)cc1	inactive	–
O=C(Oc1c(CN2CCOCC2)cc(Cl)c2cccnc12)c1ccccc1F	active: 18.4 µM	–
COc1ccc(-c2ccc(CCC(=O)O)n2-c2ccccc2OC)cc1	inconclusive: 29.1 µM [cytotoxic, single point]	–
Cc1ccc2c(=O)cc(C(=O)Nc3ccc(S(=O)(=O)N4CCCCCC4)cc3)oc2c1C	inactive	–
CCSc1nnc(NC(=O)CSc2nc3c(c(=O)n2-c2ccccc2OC)SCC3)s1	–	inconclusive: 2.25%
CN(C)c1cccc(CNC(=O)c2csc([C@H]3C[C@H](O)[C@@H](CO)O3)n2)c1	inactive	–
Cc1cc(C)c2sc(NNC(=O)c3ccc(S(=O)(=O)N4CCc5ccccc5C4)cc3)nc2c1	inconclusive: 0.58 µM [cytotoxic, full curve, poor fit]	–
Cc1ccc(C(=O)N2CCN(c3cccc(C)c3C)CC2)o1	active: 16.4 µM	–
CCOC(=O)CC(=O)CSc1nc2ccccc2c(=O)n1-c1ccc(C(=O)N2CCOCC2)cc1	inconclusive: 18.4 µM [cytotoxic, single point]	–
CC(C)c1ccc(OCC(O)CNC(C)c2ccccc2)cc1 (stereo not drawn)	inconclusive: 18.4 µM [cytotoxic, single point]	–
O=C(/C=C/c1ccccc1)N/C(=C/c1ccccc1)C(=O)N1CCOCC1	inconclusive: 29.1 µM [rising, single point]	–
O=C(Nc1cccc(S(=O)(=O)N2CCCCC2)c1)Nc1ccc(Cl)cc1Cl	inconclusive: 29.1 µM [cytotoxic, single point]	–
CCc1ccc(Cc2cnc(NC(=O)c3ccc4c(c3)CC(c3ccccc3)OC4=O)s2)cc1 (stereo not drawn)	inactive	–
Cc1ccc(S(=O)(=O)Nc2ccc(N=Nc3ccc(O)cc3)cc2)cc1	inactive	–
C[n+]1cccc(/C=N/Nc2nc(Cl)c(C#N)c(Cl)c2Cl)c1	–	inconclusive: 26.3%
COc1cccc(-c2nn(-c3ccc(F)cc3)cc2C(=O)NCC2CCCO2)c1 (stereo not drawn)	inconclusive: 20.6 µM [rising, single point]	–
O=C(c1ccc(S(=O)(=O)c2ccccc2Cl)c([N+](=O)[O-])c1)N1CCN(Cc2ccccc2)CC1	inconclusive: 29.1 µM [cytotoxic, single point]	–
NC(=O)c1ccccc1N=Cc1ccc2ccccc2c1	inconclusive: 29.1 µM [cytotoxic, single point]	–
O=C(c1ccc(-n2c(SCc3cccc(F)c3)nc3ccccc3c2=O)cc1)N1CCOCC1	inconclusive: 23.1 µM [cytotoxic, single point]	–
